Source: article PMC12781078
Results are given in words; binding and its absence hold for the method and conditions named. Binding seen in cells or lysates may run through a third protein. Some binding calls cover weakened binding; strength is not graded here. For some of these results: Where a sequence is shown, tags or fusion partners need not be part of it.

How the values were obtained:
[1] = molecular target: EGFR-HA (full length) (UniProt P00533); experiment: co-IP; HEK-293T cells transfected with 3 ug of each plasmid for 48 h; lysates in WB/IP lysis buffer incubated with anti-Flag or anti-HA beads overnight at 4 °C; Western blot
[2] = molecular target: EGFR-HA (full length) (UniProt P00533); experiment: co-IP; competition: HEK293T cells co-transfected with EGFR-HA, PTP1B-Flag and increasing DCBLD1-Flag, or with EGFR-HA, DCBLD1-Flag and increasing PTP1B-Flag; IP with HA antibodies, blot with HA and Flag antibodies
[3] = molecular target: EGFR, endogenous in A549 and H1299 cells (human (endogenous in A549 and H1299)) (UniProt P00533); experiment: co-IP; endogenous proteins; A549 and H1299 lysates incubated with 2 ug anti-EGFR, anti-DCBLD1 or normal IgG overnight at 4 °C, captured with Protein A/G beads; Western blot
[4] = molecular target: T1, DCBLD1-Flag (discoidin, CUB and LCCL domain containing 1, full length) (UniProt Q8N8Z6); experiment: co-IP; DCBLD1 with DCBLD2 (Figure S4B); cells and tags not given
T1 sequence: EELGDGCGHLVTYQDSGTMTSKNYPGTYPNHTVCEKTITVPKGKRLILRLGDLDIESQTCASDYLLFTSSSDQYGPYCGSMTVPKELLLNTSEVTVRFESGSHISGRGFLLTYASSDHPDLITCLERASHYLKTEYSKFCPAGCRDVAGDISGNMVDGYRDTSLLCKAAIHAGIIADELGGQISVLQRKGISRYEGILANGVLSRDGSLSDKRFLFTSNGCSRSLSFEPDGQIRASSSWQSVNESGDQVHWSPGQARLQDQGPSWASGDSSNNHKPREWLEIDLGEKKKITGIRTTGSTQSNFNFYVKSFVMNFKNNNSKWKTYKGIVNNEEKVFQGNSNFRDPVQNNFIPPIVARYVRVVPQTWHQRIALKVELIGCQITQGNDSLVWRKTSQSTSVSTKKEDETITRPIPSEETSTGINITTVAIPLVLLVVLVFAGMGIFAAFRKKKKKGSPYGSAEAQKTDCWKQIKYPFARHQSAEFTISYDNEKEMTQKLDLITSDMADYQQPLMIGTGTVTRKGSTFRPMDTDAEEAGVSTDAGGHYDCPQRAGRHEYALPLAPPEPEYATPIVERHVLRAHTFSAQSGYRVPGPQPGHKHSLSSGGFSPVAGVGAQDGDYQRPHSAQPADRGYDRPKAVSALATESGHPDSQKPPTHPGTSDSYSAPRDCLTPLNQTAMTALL

B1: DCBLD1-Flag (discoidin, CUB and LCCL domain containing 1, full length) (protein, UniProt Q8N8Z6 35-715)
chain: EELGDGCGHLVTYQDSGTMTSKNYPGTYPNHTVCEKTITVPKGKRLILRLGDLDIESQTCASDYLLFTSSSDQYGPYCGSMTVPKELLLNTSEVTVRFESGSHISGRGFLLTYASSDHPDLITCLERASHYLKTEYSKFCPAGCRDVAGDISGNMVDGYRDTSLLCKAAIHAGIIADELGGQISVLQRKGISRYEGILANGVLSRDGSLSDKRFLFTSNGCSRSLSFEPDGQIRASSSWQSVNESGDQVHWSPGQARLQDQGPSWASGDSSNNHKPREWLEIDLGEKKKITGIRTTGSTQSNFNFYVKSFVMNFKNNNSKWKTYKGIVNNEEKVFQGNSNFRDPVQNNFIPPIVARYVRVVPQTWHQRIALKVELIGCQITQGNDSLVWRKTSQSTSVSTKKEDETITRPIPSEETSTGINITTVAIPLVLLVVLVFAGMGIFAAFRKKKKKGSPYGSAEAQKTDCWKQIKYPFARHQSAEFTISYDNEKEMTQKLDLITSDMADYQQPLMIGTGTVTRKGSTFRPMDTDAEEAGVSTDAGGHYDCPQRAGRHEYALPLAPPEPEYATPIVERHVLRAHTFSAQSGYRVPGPQPGHKHSLSSGGFSPVAGVGAQDGDYQRPHSAQPADRGYDRPKAVSALATESGHPDSQKPPTHPGTSDSYSAPRDCLTPLNQTAMTALL
- binding [1]: binds
- binding [2]: binds

B2: DCBLD1, endogenous in A549 and H1299 cells (protein, UniProt Q8N8Z6 35-715)
chain: EELGDGCGHLVTYQDSGTMTSKNYPGTYPNHTVCEKTITVPKGKRLILRLGDLDIESQTCASDYLLFTSSSDQYGPYCGSMTVPKELLLNTSEVTVRFESGSHISGRGFLLTYASSDHPDLITCLERASHYLKTEYSKFCPAGCRDVAGDISGNMVDGYRDTSLLCKAAIHAGIIADELGGQISVLQRKGISRYEGILANGVLSRDGSLSDKRFLFTSNGCSRSLSFEPDGQIRASSSWQSVNESGDQVHWSPGQARLQDQGPSWASGDSSNNHKPREWLEIDLGEKKKITGIRTTGSTQSNFNFYVKSFVMNFKNNNSKWKTYKGIVNNEEKVFQGNSNFRDPVQNNFIPPIVARYVRVVPQTWHQRIALKVELIGCQITQGNDSLVWRKTSQSTSVSTKKEDETITRPIPSEETSTGINITTVAIPLVLLVVLVFAGMGIFAAFRKKKKKGSPYGSAEAQKTDCWKQIKYPFARHQSAEFTISYDNEKEMTQKLDLITSDMADYQQPLMIGTGTVTRKGSTFRPMDTDAEEAGVSTDAGGHYDCPQRAGRHEYALPLAPPEPEYATPIVERHVLRAHTFSAQSGYRVPGPQPGHKHSLSSGGFSPVAGVGAQDGDYQRPHSAQPADRGYDRPKAVSALATESGHPDSQKPPTHPGTSDSYSAPRDCLTPLNQTAMTALL
- binding [3]: binds

B3: DCBLD2 (full length, tagged) (protein, UniProt Q96PD2 67-775)
chain: QQGDGCGHTVLGPESGTLTSINYPQTYPNSTVCEWEIRVKMGERVRIKFGDFDIEDSDSCHFNYLRIYNGIGVSRTEIGKYCGLGLQMNHSIESKGNEITLLFMSGIHVSGRGFLASYSVIDKQDLITCLDTASNFLEPEFSKYCPAGCLLPFAEISGTIPHGYRDSSPLCMAGVHAGVVSNTLGGQISVVISKGIPYYESSLANNVTSVVGHLSTSLFTFKTSGCYGTLGMESGVIADPQITASSVLEWTDHTGQENSWKPKKARLKKPGPPWAAFATDEYQWLQIDLNKEKKITGIITTGSTMVEHNYYVSAYRILYSDDGQKWTVYREPGVEQDKIFQGNKDYHQDVRNNFLPPIIARFIRVNPTQWQQKIAMKMELLGCQFIPKGRPPKLTQPPPPRNSNDLKNTTAPPKIAKGRAPKFTQPLQPRSSNEFPAQTEQTTASPDIRNTTVTPNVTKDVALAAVLVPVLVMVLTTLILILVCAWHWRNRKKKTEGTYDLPYWDRAGWWKGMKQFLPAKAVDHEETPVRYSSSEVNHLSPREVTTVLQADSAEYAQPLVGGIVGTLHQRSTFKPEEGKEAGYADLDPYNSPGQEVYHAYAEPLPITGPEYATPIIMDMSGHPTTSVGQPSTSTFKATGNQPPPLVGTYNTLLSRTDSCSSAQAQYDTPKAGKPGLPAPDELVYQVPQSTQEVSGAGRDGECDVFKEIL
- binding [4]: no binding
